Source: paper PMC4838387, “PolDIP2 interacts with human PrimPol and enhances its DNA polymerase activities”

Chains of the proteins cited; added tags and fusions are not shown. Lines headed by an entry give the natural chain unless they say otherwise; changes in a name come on top.
UniProt Q9Y2S7: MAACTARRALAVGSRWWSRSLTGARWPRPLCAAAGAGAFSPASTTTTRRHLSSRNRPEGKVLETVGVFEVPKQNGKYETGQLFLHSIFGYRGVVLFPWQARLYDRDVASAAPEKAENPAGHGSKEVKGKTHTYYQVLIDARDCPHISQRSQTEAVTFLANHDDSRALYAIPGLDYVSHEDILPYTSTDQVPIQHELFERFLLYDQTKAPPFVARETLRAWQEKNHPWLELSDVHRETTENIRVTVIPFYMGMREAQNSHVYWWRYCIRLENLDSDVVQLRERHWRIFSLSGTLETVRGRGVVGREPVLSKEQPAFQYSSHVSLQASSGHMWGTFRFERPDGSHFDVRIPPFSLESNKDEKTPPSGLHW

What was measured:
PrimPol^24–354 (human) [1] = target: T1, PrimPol^24–354 (human) (UniProt Q96LW4); assay: cross-linking; BS3 cross-linker (1:1 to 20:1 crosslinker:protein) on equimolar untagged PolDIP2 and PrimPol 24-354, 50 mM HEPES pH 7.5, 150 mM NaCl, 10% glycerol, on ice; band of the weight of a 1:1 complex excised, digested, nano-LC-MS, StavroX; both purified
T1 sequence: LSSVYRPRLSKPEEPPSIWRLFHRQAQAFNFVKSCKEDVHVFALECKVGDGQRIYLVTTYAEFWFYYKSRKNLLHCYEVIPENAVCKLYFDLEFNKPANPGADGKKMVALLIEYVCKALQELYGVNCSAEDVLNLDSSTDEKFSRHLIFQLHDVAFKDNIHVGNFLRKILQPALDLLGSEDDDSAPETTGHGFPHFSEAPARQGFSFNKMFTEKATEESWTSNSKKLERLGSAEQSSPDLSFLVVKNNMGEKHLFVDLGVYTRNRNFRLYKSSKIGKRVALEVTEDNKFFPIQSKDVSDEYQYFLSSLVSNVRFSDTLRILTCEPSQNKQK

PrimPol^24–354 (human) [2] = target: T1, PrimPol^24–354 (human); assay: native gel or EMSA; 20 nM labelled 20/97-mer primer/template DNA, 10 mM Bis-Tris-propane-HCl pH 7.0, 10 mM MgCl2, 100 µM DTT; 5% native polyacrylamide gel; complex seen on the DNA (super-shifted complex); both purified

“untagged PolDIP2 (polymerase δ-interacting protein 2) (from UniProt Q9Y2S7)” was tested, and the binding (PrimPol^24–354 (human) [1]) was “binds” and the binding (PrimPol^24–354 (human) [2]) was “binds”.

These are yes or no findings as the source states them, for the method shown. Binding can be weak; no strength is given.
